From publication PMC13191460

The chains behind the UniProt entries cited, without tags or fusion partners.
UniProt P09874: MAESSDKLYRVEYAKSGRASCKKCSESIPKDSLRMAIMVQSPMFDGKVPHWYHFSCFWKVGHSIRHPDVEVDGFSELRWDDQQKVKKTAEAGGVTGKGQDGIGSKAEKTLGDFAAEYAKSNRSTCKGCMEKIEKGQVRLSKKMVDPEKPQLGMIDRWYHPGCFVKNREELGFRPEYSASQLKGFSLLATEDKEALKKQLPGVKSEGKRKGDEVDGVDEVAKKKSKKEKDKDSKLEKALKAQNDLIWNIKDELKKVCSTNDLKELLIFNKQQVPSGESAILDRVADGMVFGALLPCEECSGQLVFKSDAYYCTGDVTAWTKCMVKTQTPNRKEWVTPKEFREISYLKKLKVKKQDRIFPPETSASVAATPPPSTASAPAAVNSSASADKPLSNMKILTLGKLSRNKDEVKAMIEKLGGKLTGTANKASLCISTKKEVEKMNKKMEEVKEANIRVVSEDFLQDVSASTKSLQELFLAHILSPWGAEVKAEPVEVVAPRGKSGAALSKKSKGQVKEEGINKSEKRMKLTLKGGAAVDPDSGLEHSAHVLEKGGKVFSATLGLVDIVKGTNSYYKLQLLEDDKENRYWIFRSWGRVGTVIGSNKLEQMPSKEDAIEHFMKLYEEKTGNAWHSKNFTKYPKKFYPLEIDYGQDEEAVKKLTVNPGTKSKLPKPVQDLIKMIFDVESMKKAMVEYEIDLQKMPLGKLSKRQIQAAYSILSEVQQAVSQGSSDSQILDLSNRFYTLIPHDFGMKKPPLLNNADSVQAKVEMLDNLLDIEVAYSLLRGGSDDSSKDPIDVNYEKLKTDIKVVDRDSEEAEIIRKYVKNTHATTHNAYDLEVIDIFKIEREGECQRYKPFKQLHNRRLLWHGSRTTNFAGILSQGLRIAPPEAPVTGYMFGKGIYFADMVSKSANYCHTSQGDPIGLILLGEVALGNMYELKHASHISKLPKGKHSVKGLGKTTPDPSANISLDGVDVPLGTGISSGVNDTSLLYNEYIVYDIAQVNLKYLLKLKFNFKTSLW

Target: SFB-DDX11 (from pIRES2-SFB-DDX11) (human) (UniProt Q96FC9)
Assay: affinity purification with mass spectrometry; tandem affinity purification of SFB-DDX11 from transfected NOZ cells (72 h), NETN lysis buffer; Flag M2 beads, elution with Flag peptide, then S protein agarose; SDS-PAGE, silver stain, bands excised for LC-MS/MS; SFB-vector as control

Substance: PARP1 (endogenous) (from UniProt P09874 1-1014)
- binding: binds

These are yes or no findings as the source states them, for the method shown. In cells and extracts the contact can be indirect. A yes stands for co-enrichment or nearness to the bait. Other partners may have been found.
